Source: paper PMC10201418
No constants are given. Whether binding was seen depends on the method and setting. Binding seen in cells or lysates may run through a third protein. A yes stands for co-enrichment or nearness to the bait. Other partners may have been found. Tags and fused reporters may be left off the sequences shown.

Amino acid sequences for entries named in this document (tags omitted).
UniProt P67870: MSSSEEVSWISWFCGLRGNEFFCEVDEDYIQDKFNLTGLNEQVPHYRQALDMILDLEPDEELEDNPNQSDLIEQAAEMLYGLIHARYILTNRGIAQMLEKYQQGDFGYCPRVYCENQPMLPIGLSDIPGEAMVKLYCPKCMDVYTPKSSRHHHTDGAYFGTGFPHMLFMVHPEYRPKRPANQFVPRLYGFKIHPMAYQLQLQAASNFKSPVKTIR
UniProt Q9NR30: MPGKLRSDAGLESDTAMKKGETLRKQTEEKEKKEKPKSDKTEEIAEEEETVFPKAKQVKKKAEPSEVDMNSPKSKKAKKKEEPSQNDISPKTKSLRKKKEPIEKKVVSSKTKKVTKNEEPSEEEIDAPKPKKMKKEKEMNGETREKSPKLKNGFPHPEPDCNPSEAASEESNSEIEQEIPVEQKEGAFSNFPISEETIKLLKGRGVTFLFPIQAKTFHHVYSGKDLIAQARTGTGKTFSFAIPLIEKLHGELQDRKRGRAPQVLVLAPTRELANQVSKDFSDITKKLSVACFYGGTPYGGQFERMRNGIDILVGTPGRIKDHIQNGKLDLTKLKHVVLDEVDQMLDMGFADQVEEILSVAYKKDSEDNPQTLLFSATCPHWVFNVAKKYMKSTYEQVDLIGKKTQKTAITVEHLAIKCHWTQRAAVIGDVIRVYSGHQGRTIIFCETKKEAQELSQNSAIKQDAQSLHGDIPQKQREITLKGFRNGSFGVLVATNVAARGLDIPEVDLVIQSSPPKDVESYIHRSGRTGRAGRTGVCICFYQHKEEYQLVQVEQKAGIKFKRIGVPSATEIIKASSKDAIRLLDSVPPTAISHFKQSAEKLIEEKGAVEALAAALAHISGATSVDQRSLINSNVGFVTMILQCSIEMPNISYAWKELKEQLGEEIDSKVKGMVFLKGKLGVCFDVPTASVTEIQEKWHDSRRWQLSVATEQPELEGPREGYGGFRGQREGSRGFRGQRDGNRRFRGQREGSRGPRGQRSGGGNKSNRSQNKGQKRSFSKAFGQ
UniProt P10644: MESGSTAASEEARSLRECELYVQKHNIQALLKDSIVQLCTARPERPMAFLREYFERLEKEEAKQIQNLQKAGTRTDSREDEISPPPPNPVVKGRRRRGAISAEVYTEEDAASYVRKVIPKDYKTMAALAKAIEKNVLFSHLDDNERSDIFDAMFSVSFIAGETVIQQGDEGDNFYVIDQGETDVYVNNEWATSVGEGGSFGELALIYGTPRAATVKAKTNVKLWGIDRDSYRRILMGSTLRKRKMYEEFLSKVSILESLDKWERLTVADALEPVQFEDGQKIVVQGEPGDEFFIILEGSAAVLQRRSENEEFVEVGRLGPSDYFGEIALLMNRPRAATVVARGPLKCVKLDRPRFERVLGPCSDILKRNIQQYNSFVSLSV
UniProt Q9Y2H1: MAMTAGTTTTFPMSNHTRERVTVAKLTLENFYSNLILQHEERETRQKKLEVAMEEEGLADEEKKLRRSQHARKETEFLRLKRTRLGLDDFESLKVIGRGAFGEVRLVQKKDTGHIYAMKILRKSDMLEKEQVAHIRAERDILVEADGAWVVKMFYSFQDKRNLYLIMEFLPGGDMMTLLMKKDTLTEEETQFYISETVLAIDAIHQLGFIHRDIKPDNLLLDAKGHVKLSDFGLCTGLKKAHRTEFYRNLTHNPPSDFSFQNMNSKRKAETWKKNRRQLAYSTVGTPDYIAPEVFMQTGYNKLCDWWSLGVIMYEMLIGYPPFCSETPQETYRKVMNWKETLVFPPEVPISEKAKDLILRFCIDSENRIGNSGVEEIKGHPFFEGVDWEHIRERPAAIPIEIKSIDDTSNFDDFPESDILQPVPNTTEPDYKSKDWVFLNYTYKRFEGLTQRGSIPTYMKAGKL
UniProt P13010: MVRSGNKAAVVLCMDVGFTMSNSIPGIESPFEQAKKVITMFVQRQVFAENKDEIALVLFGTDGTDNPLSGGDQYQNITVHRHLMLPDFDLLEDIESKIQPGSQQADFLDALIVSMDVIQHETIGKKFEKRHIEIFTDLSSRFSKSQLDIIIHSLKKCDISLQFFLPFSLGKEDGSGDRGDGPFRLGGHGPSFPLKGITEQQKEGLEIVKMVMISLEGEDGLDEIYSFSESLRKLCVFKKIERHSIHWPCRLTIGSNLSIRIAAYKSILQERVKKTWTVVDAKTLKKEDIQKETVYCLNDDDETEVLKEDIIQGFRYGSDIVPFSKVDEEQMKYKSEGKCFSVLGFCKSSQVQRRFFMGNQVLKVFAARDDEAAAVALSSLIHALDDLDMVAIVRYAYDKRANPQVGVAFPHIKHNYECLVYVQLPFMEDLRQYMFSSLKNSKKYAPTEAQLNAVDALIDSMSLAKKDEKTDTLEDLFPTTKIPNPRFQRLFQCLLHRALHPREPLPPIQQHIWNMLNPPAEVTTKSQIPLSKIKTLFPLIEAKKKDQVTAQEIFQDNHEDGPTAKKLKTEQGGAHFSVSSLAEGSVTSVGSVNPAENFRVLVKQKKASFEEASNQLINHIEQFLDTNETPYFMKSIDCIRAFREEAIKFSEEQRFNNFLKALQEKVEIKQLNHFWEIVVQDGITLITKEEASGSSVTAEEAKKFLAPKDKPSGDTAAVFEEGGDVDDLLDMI
UniProt P12956: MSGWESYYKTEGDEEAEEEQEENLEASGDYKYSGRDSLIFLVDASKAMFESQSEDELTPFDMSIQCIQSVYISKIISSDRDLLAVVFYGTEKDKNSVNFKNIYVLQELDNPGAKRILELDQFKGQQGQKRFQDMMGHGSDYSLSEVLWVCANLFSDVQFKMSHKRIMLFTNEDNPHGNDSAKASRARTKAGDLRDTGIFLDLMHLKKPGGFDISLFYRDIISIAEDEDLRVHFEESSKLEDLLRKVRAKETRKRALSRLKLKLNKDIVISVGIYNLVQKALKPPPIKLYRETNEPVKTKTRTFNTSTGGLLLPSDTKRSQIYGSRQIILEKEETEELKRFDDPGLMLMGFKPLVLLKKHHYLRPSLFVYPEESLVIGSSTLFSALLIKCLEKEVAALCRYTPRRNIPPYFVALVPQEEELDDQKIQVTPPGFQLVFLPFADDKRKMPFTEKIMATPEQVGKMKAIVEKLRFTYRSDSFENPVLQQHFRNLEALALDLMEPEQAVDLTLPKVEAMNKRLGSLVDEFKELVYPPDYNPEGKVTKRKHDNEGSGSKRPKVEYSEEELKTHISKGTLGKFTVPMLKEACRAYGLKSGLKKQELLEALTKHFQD

T1: FLAG-tagged IRF1 (FLAG-IRF1 or IRF1-FLAG), bait of the proteomics screen (UniProt P10914)
T1 sequence: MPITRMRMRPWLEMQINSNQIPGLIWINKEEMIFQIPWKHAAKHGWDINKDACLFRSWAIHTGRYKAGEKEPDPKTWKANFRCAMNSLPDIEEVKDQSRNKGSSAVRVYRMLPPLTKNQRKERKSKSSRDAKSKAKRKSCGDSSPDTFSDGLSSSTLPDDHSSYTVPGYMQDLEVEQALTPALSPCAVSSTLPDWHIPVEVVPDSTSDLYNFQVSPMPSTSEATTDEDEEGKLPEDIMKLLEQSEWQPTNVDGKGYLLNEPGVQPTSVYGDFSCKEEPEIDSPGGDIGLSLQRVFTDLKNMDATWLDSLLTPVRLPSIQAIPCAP

B1: TAB3 (protein, UniProt Q8N5C8 1-712)
chain: MAQSSPQLDIQVLHDLRQRFPEIPEGVVSQCMLQNNNNLEACCRALSQESSKYLYMEYHSPDDNRMNRNRLLHINLGIHSPSSYHPGDGAQLNGGRTLVHSSSDGHIDPQHAAGKQLICLVQEPHSAPAVVAATPNYNPFFMNEQNRSAATPPSQPPQQPSSMQTGMNPSAMQGPSPPPPPPSYMHIPRYSTNPITVTVSQNLPSGQTVPRALQILPQIPSNLYGSPGSIYIRQTSQSSSGRQTPQSTPWQSSPQGPVPHYSQRPLPVYPHQQNYQPSQYSPKQQQIPQSAYHSPPPSQCPSPFSSPQHQVQPSQLGHIFMPPSPSTTPPHPYQQGPPSYQKQGSHSVAYLPYTASSLSKGSMKKIEITVEPSQRPGTAINRSPSPISNQPSPRNQHSLYTATTPPSSSPSRGISSQPKPPFSVNPVYITYTQPTGPSCTPSPSPRVIPNPTTVFKITVGRATTENLLNLVDQEERSAAPEPIQPISVIPGSGGEKGSHKYQRSSSSGSDDYAYTQALLLHQRARMERLAKQLKLEKEELERLKSEVNGMEHDLMQRRLRRVSCTTAIPTPEEMTRLRSMNRQLQINVDCTLKEVDLLQSRGNFDPKAMNNFYDNIEPGPVVPPKPSKKDSSDPCTIERKARRISVTSKVQADIHDTQAAAADEHRTGSTQSPRTQPRDEDYEGAPWNCDSCTFLNHPALNRCEQCEMPRYT
B2: TAB1 (protein, UniProt Q15750 1-504)
chain: MAAQRRSLLQSEQQPSWTDDLPLCHLSGVGSASNRSYSADGKGTESHPPEDSWLKFRSENNCFLYGVFNGYDGNRVTNFVAQRLSAELLLGQLNAEHAEADVRRVLLQAFDVVERSFLESIDDALAEKASLQSQLPEGVPQHQLPPQYQKILERLKTLEREISGGAMAVVAVLLNNKLYVANVGTNRALLCKSTVDGLQVTQLNVDHTTENEDELFRLSQLGLDAGKIKQVGIICGQESTRRIGDYKVKYGYTDIDLLSAAKSKPIIAEPEIHGAQPLDGVTGFLVLMSEGLYKALEAAHGPGQANQEIAAMIDTEFAKQTSLDAVAQAVVDRVKRIHSDTFASGGERARFCPRHEDMTLLVRNFGYPLGEMSQPTPSPAPAAGGRVYPVSVPYSSAQSTSKTSVTLSLVMPSQGQMVNGAHSASTLDEATPTLTNQSPTLTLQSTNTHTQSSSSSSDGGLFRSRPAHSLPPGEDGRVEPYVDFAEFYRLWSVDHGEQSVVTAP

These molecules were tested against T1, FLAG-tagged IRF1 (FLAG-IRF1 or IRF1-FLAG), bait of the proteomics screen (assay: affinity purification with mass spectrometry).

binding, binds:
CSNK2B, regulatory subunit of casein kinase 2 (endogenous) (from UniProt P67870 1-215)
DDX21 (from UniProt Q9NR30 1-783)
PRKAR1A (from UniProt P10644 1-381)
STK38L (from UniProt Q9Y2H1 1-464)
XRCC5 (from UniProt P13010 1-732)
XRCC6 (from UniProt P12956 1-609)
B1
B2
